{"source": "paper PMC7430664", "about": "“Yeast pentatricopeptide protein Dmr1 (Ccm1) binds a repetitive AU-rich motif in the small subunit mitochondrial ribosomal RNA”", "target": "T1, Dmr1p (Ccm1p), tag removed (Saccharomyces cerevisiae) (UniProt P48237)", "T1 sequence (looked up, limits assumed)": "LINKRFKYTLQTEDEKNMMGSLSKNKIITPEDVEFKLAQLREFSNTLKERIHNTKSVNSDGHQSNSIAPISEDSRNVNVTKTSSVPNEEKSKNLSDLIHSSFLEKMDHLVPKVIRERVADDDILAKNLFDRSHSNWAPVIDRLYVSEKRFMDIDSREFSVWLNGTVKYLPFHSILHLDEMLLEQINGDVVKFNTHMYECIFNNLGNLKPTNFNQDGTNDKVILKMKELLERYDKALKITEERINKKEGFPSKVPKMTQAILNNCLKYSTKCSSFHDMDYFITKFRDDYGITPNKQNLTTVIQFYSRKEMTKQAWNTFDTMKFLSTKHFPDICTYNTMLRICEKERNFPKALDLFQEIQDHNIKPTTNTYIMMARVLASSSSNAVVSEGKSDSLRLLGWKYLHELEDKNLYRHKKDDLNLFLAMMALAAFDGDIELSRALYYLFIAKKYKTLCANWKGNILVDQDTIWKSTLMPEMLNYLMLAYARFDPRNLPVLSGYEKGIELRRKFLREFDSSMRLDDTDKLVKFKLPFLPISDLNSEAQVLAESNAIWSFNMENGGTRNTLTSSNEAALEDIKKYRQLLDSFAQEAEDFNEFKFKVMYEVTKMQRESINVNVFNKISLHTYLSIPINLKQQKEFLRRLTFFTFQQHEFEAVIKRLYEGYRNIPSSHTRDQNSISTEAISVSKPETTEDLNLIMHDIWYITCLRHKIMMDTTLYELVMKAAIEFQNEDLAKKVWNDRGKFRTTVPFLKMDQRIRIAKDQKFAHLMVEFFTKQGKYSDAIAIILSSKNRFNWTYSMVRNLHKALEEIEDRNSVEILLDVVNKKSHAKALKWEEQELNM", "test": "EMSA", "conditions": "0.2 ug tRNA, marginal at highest protein, EMSA as in Puchta et al. 2010 (buffer not restated), 15 uL, up to 0.8 ug Dmr1p, BSA to constant protein, recombinant protein, label: 32P-UTP, letters put together from the description", "note": "Construct, isoform or probe ends are uncertain for at least one entry. A weaker result is weaker than the reference pair of the same experiment. Where a protein sequence is shown, tags need not be part of it.", "data": [{"sequence": "GGAUAAUAUGGGUAAU [7_14]", "values": [{"measurement": "binding result", "result": "binds more weakly"}]}]}
